The other results are listed elsewhere or left out. Shown are side measurements of this screen, not its main read-out; they come without a call. The list favours compounds with an active or inconclusive main result. Words in brackets tell the shape of the fitted curve; partial curves, single points and poor fits give uncertain potencies.

This assay in a line: qHTS Assay to Find Inhibitors of Chronic Active B-Cell Receptor Signaling. The following applies: ABC-DLBCL IkBa-CBG/CBR reporter, luminescence ratio (green luciferase fused to IkBa over red control in TMD8 lymphoma cells), 4 h. The procedure, abridged: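 Cell line TMD8 (human ABC DLBCL), stably expressing tet-inducible CBG68-IkBa fusion and CBR; IMDM/0.5% FBS; cpd up to 46 uM; dox induction, 4 h, 37C/5% CO2; dual luminescence; green/red ratio; MG132 control.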
In general terms: Quantitative high-throughput screening tests each substance at several concentrations.

[1] abbreviates: measured here: CBR red luminescence, cell number.
[2] abbreviates: measured here: IkBa-CBG green luminescence.

As usually defined, the AC50 is the midpoint of the concentration-response curve, whichever way the signal moves. On to `O=C(Nc1ccccc1)Nc1ccccc1C(=O)NCC1CC1`, for which the AC50 under setting [1] was 1.41 µM [falling, full curve].

As for `CCc1ccc(NC(=O)CSC2=Nc3ccccc3C3=NC(CC(=O)NCc4cccs4)C(=O)N23)cc1` (centres undefined), under setting [1], the half-maximal activity concentration (AC50) is 15.8 µM [falling, single point].

Regarding `CCOC(=O)c1sc(NC(=S)NC(=O)c2ccc(OC)cc2)nc1C`, the AC50 under setting [1] is 0.794 µM [falling, full curve].

Take `COc1ccc2[nH]c(=O)c(C(c3nnnn3C3CCCC3)N3CCN(Cc4ccc5c(c4)OCO5)CC3)cc2c1` (centres undefined): the AC50 under setting [1] is 10.3 µM [rising, partial curve, poor fit].

On to `CCCC1=C(C(=O)OCC)C(c2ccccc2OC)NC(=O)N1` (centres undefined), for which the AC50 under setting [1] was 6.31 µM [rising, single point].

For the compound `CCOC(=O)[C@H]1[C@H]2COc3ccccc3[C@@H]2N2C(=O)c3cc(OC)ccc3NC(=O)[C@@]12C`, the AC50 is 10.3 µM [falling, partial curve] under setting [1] and 13 µM [rising, partial curve, poor fit] under setting [2].

Turning to `Cc1ccc(S(=O)(=O)N2CCC(C(=O)Nc3ccccc3N3CCCC3)CC2)cc1`, the AC50 under setting [1] was 23.1 µM [rising, single point].

Take `C=CCNC(=S)NNC(=O)COc1ccc(Cl)cc1Cl`: the AC50 reads like this: under setting [1], 20.6 µM [rising, single point]; under setting [2], 20.6 µM [falling, single point].

`COC(=O)c1cn(-c2ccccc2)nc1-c1ccncc1`: the AC50 under setting [1] was 10 µM [falling, single point].

As for `Oc1c(/C=C/C=C/C=Nc2ccccc2)sc(=S)n1Cc1ccccc1`, under setting [1], the AC50 was 25.1 µM [falling, single point].

With `O=C(CSc1nccn1-c1ccccc1)c1ccc(Br)cc1`, under setting [1], the AC50 is 2.82 µM [rising, full curve, poor fit].

Take `CCOc1ccc(-c2nnn(CC(=O)N3CCN(c4ccc(F)cc4)CC3)n2)cc1OCC`: under setting [1], the AC50 is 4.11 µM [falling, single point].

In the case of `CCOc1cccc(C(=O)NC(=S)Nc2ccccc2)c1`, the AC50 under setting [1] was 5.8 µM [rising, partial curve, poor fit].

For `COc1cccc(CNC(=O)C2CCN(S(=O)(=O)c3cnc[nH]3)CC2)c1`, the AC50 under setting [1] was 2.59 µM [rising, partial curve].

`Cc1c(C(=O)Oc2ccc(Br)cc2)sc2ncn(Cc3ccccc3F)c(=O)c12`: under setting [1], the AC50 is 1.12 µM [rising, full curve, poor fit].

In the case of `CC(C)c1ccc(NC2CCCN(C(=O)c3ccncc3)C2)cc1` (centres undefined), the half-maximal activity concentration (AC50) under setting [1] is 2 µM [falling, full curve].

`COCCOC(=O)c1c(C)n(C)c2ccc(OC(=O)c3ccco3)cc12`: the half-maximal activity concentration (AC50) under setting [1] is 23.1 µM [falling, single point].

For the origin of these results see PubChem BioAssay AID493014 (National Center for Advancing Translational Sciences (NCATS), 2011).
